From paper PMC6542539
Results are given in words; binding and its absence hold for the method and conditions named. Binding seen in cells or lysates may run through a third protein. Some binding calls cover weakened binding; strength is not graded here. Where a sequence is shown, tags or fusion partners need not be part of it.

Tests used:
[1] = biological target: T1, catalytic domain of HisRS fused to GFP (CD-GFP) (S. cerevisiae) (UniProt P07263); experiment: co-IP; CD-GFP or ABD-GFP plasmid in yeast cells with endogenously TAP-tagged HisRS; precipitated with GFP-Trap (anti-GFP) beads; western with anti-TAP antibodies, anti-GFP as control of IP efficiency
T1 sequence: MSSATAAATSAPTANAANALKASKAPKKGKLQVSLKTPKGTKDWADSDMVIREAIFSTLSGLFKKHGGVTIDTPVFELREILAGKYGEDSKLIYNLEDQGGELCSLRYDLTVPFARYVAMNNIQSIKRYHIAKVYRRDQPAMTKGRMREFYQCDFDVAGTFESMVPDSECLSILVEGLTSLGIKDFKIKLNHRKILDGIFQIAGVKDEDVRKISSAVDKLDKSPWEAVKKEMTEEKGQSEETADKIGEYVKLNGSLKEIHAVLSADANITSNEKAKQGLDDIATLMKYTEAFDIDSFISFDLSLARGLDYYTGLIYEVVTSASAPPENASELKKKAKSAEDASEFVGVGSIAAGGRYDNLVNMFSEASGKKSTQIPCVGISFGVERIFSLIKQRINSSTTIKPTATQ

[2] = biological target: T2, anticodon-binding domain of HisRS fused to GFP (ABD-GFP) (S. cerevisiae) (UniProt P07263); experiment: as above
T2 sequence: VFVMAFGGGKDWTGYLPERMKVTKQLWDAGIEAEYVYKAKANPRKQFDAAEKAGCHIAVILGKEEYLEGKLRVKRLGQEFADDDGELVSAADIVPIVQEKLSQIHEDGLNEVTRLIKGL

binding [1]: binds | binding [2]: no binding
B1: histidyl-tRNA synthetase (HisRS), endogenously TAP-tagged (enzyme, UniProt P07263 21-546)
chain: MSSATAAATSAPTANAANALKASKAPKKGKLQVSLKTPKGTKDWADSDMVIREAIFSTLSGLFKKHGGVTIDTPVFELREILAGKYGEDSKLIYNLEDQGGELCSLRYDLTVPFARYVAMNNIQSIKRYHIAKVYRRDQPAMTKGRMREFYQCDFDVAGTFESMVPDSECLSILVEGLTSLGIKDFKIKLNHRKILDGIFQIAGVKDEDVRKISSAVDKLDKSPWEAVKKEMTEEKGQSEETADKIGEYVKLNGSLKEIHAVLSADANITSNEKAKQGLDDIATLMKYTEAFDIDSFISFDLSLARGLDYYTGLIYEVVTSASAPPENASELKKKAKSAEDASEFVGVGSIAAGGRYDNLVNMFSEASGKKSTQIPCVGISFGVERIFSLIKQRINSSTTIKPTATQVFVMAFGGGKDWTGYLPERMKVTKQLWDAGIEAEYVYKAKANPRKQFDAAEKAGCHIAVILGKEEYLEGKLRVKRLGQEFADDDGELVSAADIVPIVQEKLSQIHEDGLNEVTRLIKGL
